From article PMC10850294, “Fumarate respiration of Fasciola flukes as a potential drug target” (Frontiers in Cellular and Infection Microbiology, 2024)

Columns and labels:
[1] = tested on: T1, Succinate-quinone reductase (complex II) of adult Fasciola flukes; test: succinate-quinone reductase assay, UQ2 reduction at […] nm, mitochondrial fraction; type: biochemical, Fasciola hepatica x Fasciola gigantica; conditions: 10 mM succinate, 60 μM UQ2, 0.1% sucrose monolaurate, 1 mM KCN, pH 7.4, 25 °C, 2 min preincubation
T1 construct: gene SDHB; native complex in adult fluke mitochondrial fraction (not purified); with Succinate dehydrogenase [ubiquinone] flavoprotein subunit, mitochondrial

[2] = tested on: T2, NADH-quinone reductase (complex I) of adult Fasciola flukes; test: NADH-quinone reductase assay, NADH oxidation at […] nm, mitochondrial fraction; type: biochemical, Fasciola hepatica x Fasciola gigantica; conditions: 50 μM NADH, 90 μM UQ2, 1 mM KCN, pH 7.4, 25 °C, 2 min preincubation
T2 construct: gene NDUFS2; native complex in adult fluke mitochondrial fraction (not purified); with NADH dehydrogenase [ubiquinone] flavoprotein 1, mitochondrial; NADH dehydrogenase [ubiquinone] flavoprotein 2, mitochondrial; NADH-ubiquinone oxidoreductase 75 kDa subunit, mitochondrial

Compound | Succinate-quinone reductase (complex II) ([1]; 1 µM) [%] | NADH-quinone reductase (complex I) ([2]; 1 µM) [%] | Succinate-quinone reductase (complex II) ([1]; 0.1 µM) [%] | NADH-quinone reductase (complex I) ([2]; 0.1 µM) [%]
CC(/C=C/[C@@]1(C)[C@H](C)CCC(=O)[C@@H]1C)=C\Cc1c(O)c(Cl)c(C)c(C=O)c1O [ascochlorin] | 72.3 ± 1.90 | 8.40 ± 2.00 |  | 
COc1[nH]c(=O)c(C(=O)[C@@H](C)C[C@H](C)[C@@H](Cl)CCl)c(O)c1OC [atpenin A5] | 97.2 ± 0.80 | 16.1 ± 14.5 |  | 
C=C(C)[C@H]1Cc2c(ccc3c2O[C@@H]2COc4cc(OC)c(OC)cc4[C@@H]2C3=O)O1 [rotenone] |  |  | 15.0 ± 8.20 | 91.0 ± 1.80
